Measured values: paper doi:10.1101/2020.08.19.257287
Results are given in words; binding and its absence hold for the method and conditions named. Binding seen in cells or lysates may run through a third protein. Where a sequence is shown, tags or fusion partners need not be part of it.

Assays:
Assay in all cases: co-IP
FLAG-TPD54 (human) = FLAG-TPD54 (human) (UniProt O43399)
FLAG-TPD52 (human) = biological target: T1, FLAG-TPD52 (human) (UniProt P55327)
T1 sequence: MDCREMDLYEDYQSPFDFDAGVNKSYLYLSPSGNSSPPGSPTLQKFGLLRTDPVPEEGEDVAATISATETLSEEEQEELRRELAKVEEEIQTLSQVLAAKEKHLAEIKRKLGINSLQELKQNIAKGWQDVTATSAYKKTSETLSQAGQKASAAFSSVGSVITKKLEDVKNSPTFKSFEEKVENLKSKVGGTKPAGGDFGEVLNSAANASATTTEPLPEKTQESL

FLAG-TPD53 (human) = biological target: T2, FLAG-TPD53 (human) (UniProt Q16890)
T2 sequence: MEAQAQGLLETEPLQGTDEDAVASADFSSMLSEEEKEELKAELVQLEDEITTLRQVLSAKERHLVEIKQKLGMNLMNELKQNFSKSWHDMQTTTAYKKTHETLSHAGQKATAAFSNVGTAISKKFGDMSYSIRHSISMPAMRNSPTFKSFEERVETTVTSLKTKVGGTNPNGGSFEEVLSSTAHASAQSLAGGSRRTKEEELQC

Measured: binding

B1: GFP-FKBP-TPD54(L53P,L67P) (protein, UniProt O43399 1-206)
chain: MDSAGQDINLNSPNKGLLSDSMTDVPVDTGVAARTPAVEGLTEAEEEELRAEPTKVEEEIVTLRQVPAAKERHCGELKRRLGLSTLGELKQNLSRSWHDVQVSSAYVKTSEKLGEWNEKVTQSDLYKKTQETLSQAGQKTSAALSTVGSAISRKLGDMRNSATFKSFEDRVGTIKSKVVGDRENGSDNLPSSAGSGDKPLSDPAPF
no binding: FLAG-TPD54 (human) | FLAG-TPD52 (human) | FLAG-TPD53 (human)
